Results are given in words; binding and its absence hold for the method and conditions named. In cells and extracts the contact can be indirect. Here binding means that the protein was enriched with, or labelled near, the bait; the list need not be complete. Sequences can lack the tags named with a protein.

These results are taken from article PMC3841200.

This assay deals with T1, CPL1 fused to [3xFLAG]-[Streptavidin-binding peptide]-[Protein G] tandem-affinity-purification tag (CPL1-FSG) (Arabidopsis thaliana) (UniProt Q5YDB6).
T1 sequence: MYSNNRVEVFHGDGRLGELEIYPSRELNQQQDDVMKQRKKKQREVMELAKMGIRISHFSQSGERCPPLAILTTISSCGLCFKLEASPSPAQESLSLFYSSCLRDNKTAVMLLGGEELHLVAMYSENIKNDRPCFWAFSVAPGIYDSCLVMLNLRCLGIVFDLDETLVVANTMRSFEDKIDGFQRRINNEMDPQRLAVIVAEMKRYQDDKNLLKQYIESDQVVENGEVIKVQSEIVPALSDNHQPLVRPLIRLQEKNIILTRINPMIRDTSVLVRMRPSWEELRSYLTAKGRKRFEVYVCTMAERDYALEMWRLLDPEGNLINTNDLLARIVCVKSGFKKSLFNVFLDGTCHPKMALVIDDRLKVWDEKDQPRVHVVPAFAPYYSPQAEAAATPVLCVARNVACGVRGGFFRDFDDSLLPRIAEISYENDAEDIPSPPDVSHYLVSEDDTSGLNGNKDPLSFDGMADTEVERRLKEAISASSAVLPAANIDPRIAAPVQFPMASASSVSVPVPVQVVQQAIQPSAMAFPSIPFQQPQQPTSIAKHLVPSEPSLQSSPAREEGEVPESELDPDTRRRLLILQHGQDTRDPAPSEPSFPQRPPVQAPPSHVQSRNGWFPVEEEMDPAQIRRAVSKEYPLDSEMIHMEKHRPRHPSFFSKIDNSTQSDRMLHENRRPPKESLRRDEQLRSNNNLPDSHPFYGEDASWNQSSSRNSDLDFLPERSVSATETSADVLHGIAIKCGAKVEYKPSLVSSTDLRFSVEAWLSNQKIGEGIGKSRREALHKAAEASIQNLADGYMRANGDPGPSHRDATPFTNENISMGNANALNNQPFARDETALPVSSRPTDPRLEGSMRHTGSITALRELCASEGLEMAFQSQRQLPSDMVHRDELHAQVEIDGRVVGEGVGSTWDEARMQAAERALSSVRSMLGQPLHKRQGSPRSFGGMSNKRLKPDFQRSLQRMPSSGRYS
The assay is described as follows: affinity purification with mass spectrometry; tandem affinity purification of CPL1-FSG from callus extract (IgG-Sepharose, TEV cleavage, streptavidin Sepharose, desthiobiotin elution); SDS-PAGE, >200 kDa fraction excised, trypsin, MALDI-TOF/TOF.

B1: REGULATOR OF CBF GENE EXPRESSION 3 (RCF3), endogenous (protein, UniProt Q8W4B1 1-652)
chain: MERSRSKRNYHYDQDYDGDSMPRSKPRYNNNYHFGGGGGGNNRYRGGGGGGGGNGRPSKSHPETMATTTYRILCHDAKAGGVIGKSGTIIKSIRQHTGAWINVHELVPGDAERIIEISDNRRRDPDGRMPSFSPAQEALFSVHDRILESEAQFGYGGPPPEEEEDYGGVRPGGGRVVTRLVVSRMHVGCLLGKGGKIIEQMRIETKTHIRILPRESNLPRCVSLSEEIVQIVGELNAVKNALAIVSSRLRESQHRDRSNFQGRSHSPERSFAAAGDDYMPQLRRQSSDRFPRGNFRNNNFSSRQSNYAEEAPAVPVGENVYSEELVFQILCPADKIVRVVGESQGIIDLLQNEIGVDVRVSDPVAGSDEQIITISSEEAPDDPFFPAQEALLHIQTQIIDLIPDKDNLITTRLLVPSRDSICLEGKAGSVSEISRLTGTSVQILAREEIPRCASINDVVIQITGEIRAAREALVELTLLLRSHMFKELSQKETPPASTSTTGPLEGVAGVMEVASSNNTIQSREGPTSSNLNLQQVSTILPQFKEGFGSVAKAGESEHREEVPVTTSRMAVPLVTRSTLEVVLPEAVVPKLVTKSRNKLAQISEWSGASVTIVEDRPEETQNIIRISGTPEQAERAQSLLQGFILSIQEDGP
Regarding B1, the binding result is listed as “binds”.
